# From the supplement of paper PMC8728848
# The list shows a part of the results.
# Assays:
# Test in all cases: glycan array binding signal (z-score within array); higher = stronger binding
# Details in all cases: glycan notation: IUPAC condensed, linker removed
# [1] = molecular target: GlcNAc(b1-4)GlcNAc(b1-4)GlcNAc(b1-4)GlcNAc(b1-4)GlcNAc(b1-4)GlcNAc
# Outline: (§1)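 Negative Z-scores can be read as non-binding. The Z-score is calculated within each array and then averaged across arrays of one protein sequence at different concentrations or buffers and across linkers. Arrays, 3228 in all, were curated from the Consortium for Functional Glycomics database and kept only where the protein sequence was available.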
# [2] = molecular target: GlcNAc(b1-4)[GlcNAc(b1-6)]GalNAc
# Outline: as §1
# [3] = molecular target: GlcNAc(b1-6)Gal(b1-4)GlcNAc
# Outline: as §1
# GlcNAc(b1-6)GalNAc = molecular target: GlcNAc(b1-6)GalNAc
# Outline: as §1
# [4] = molecular target: GlcNAc6S(b1-3)Gal(b1-4)GlcNAc
# Outline: as §1
# Kdn(a2-3)Gal(b1-3)GalNAc = molecular target: Kdn(a2-3)Gal(b1-3)GalNAc
# Outline: as §1
# Kdn(a2-3)Gal(b1-3)GlcNAc = molecular target: Kdn(a2-3)Gal(b1-3)GlcNAc
# Outline: as §1
# Kdn(a2-3)Gal(b1-4)Glc = molecular target: Kdn(a2-3)Gal(b1-4)Glc
# Outline: as §1
# Kdn(a2-3)Gal(b1-4)GlcNAc = molecular target: Kdn(a2-3)Gal(b1-4)GlcNAc
# Outline: as §1
# [5] = molecular target: Kdn(a2-3)Gal(b1-4)[Fuc(a1-3)]GlcNAc
# Outline: as §1
# Kdn(a2-6)Gal(b1-4)GlcNAc = molecular target: Kdn(a2-6)Gal(b1-4)GlcNAc
# Outline: as §1
# [6] = molecular target: Man(a1-2)Man(a1-2)Man(a1-3)Man
# Outline: as §1
# [7] = molecular target: Man(a1-2)Man(a1-2)Man(a1-6)[Man(a1-3)]Man
# Outline: as §1
# Man(a1-2)Man(a1-3)Man = molecular target: Man(a1-2)Man(a1-3)Man
# Outline: as §1
# [8] = molecular target: Man(a1-2)Man(a1-3)[Man(a1-2)Man(a1-6)]Man
# Outline: as §1
# [9] = molecular target: Man(a1-2)Man(a1-3)[Man(a1-2)Man(a1-6)]Man(a1-6)[Man(a1-2)Man(a1-2)Man(a1-3)]Man
# Outline: as §1
# [10] = molecular target: Man(a1-2)Man(a1-3)[Man(a1-2)Man(a1-6)]Man(a1-6)[Man(a1-2)Man(a1-2)Man(a1-3)]Man(b1-4)GlcNAc(b1-4)GlcNAc
# Outline: as §1
# [11] = molecular target: Man(a1-2)Man(a1-3)[Man(a1-6)]Man(a1-6)[Man(a1-2)Man(a1-3)]Man(b1-4)GlcNAc(b1-4)GlcNAc
# Outline: as §1
# [12] = molecular target: Man(a1-2)Man(a1-6)[Man(a1-3)]Man(a1-6)[Man(a1-2)Man(a1-2)Man(a1-3)]Man
# Outline: as §1
# [13] = molecular target: Man(a1-2)Man(a1-6)[Man(a1-3)]Man(a1-6)[Man(a1-2)Man(a1-2)Man(a1-3)]Man(b1-4)GlcNAc(b1-4)GlcNAc
# Outline: as §1
# Man(a1-3)[Man(a1-6)]Man = molecular target: Man(a1-3)[Man(a1-6)]Man
# Outline: as §1
# [14] = molecular target: Man(a1-3)[Man(a1-6)]Man(a1-6)[Man(a1-2)Man(a1-3)]Man(b1-4)GlcNAc(b1-4)GlcNAc
# Outline: as §1
# [15] = molecular target: Man(a1-3)[Man(a1-6)]Man(a1-6)[Man(a1-3)]Man
# Outline: as §1
# [16] = molecular target: Man(a1-3)[Man(a1-6)]Man(a1-6)[Man(a1-3)]Man(b1-4)GlcNAc(b1-4)GlcNAc
# Outline: as §1
# [17] = molecular target: Man(a1-3)[Man(a1-6)]Man(b1-4)GlcNAc(b1-4)GlcNAc
# Outline: as §1
# [18] = molecular target: Man(a1-3)[Man(a1-6)]Man(b1-4)GlcNAc(b1-4)[Fuc(a1-6)]GlcNAc
# Outline: as §1
# Man(a1-6)Man = molecular target: Man(a1-6)Man
# Outline: as §1
# Man(b1-4)GlcNAc = molecular target: Man(b1-4)GlcNAc
# Outline: as §1
# MurNAc(b1-4)GlcNAc = molecular target: MurNAc(b1-4)GlcNAc
# Outline: as §1
# Neu5Ac(a2-3)Gal = molecular target: Neu5Ac(a2-3)Gal
# Outline: as §1
# [19] = molecular target: Neu5Ac(a2-3)Gal(b1-3)GalNAc
# Outline: as §1
# [20] = molecular target: Neu5Ac(a2-3)Gal(b1-3)GalNAc(b1-3)Gal(a1-4)Gal(b1-4)Glc
# Outline: as §1
# [21] = molecular target: Neu5Ac(a2-3)Gal(b1-3)GalNAc(b1-4)[Neu5Ac(a2-3)]Gal(b1-4)Glc
# Outline: as §1
# [22] = molecular target: Neu5Ac(a2-3)Gal(b1-3)GalNAc(b1-4)[Neu5Ac(a2-8)Neu5Ac(a2-3)]Gal(b1-4)Glc
# Outline: as §1
# [23] = molecular target: Neu5Ac(a2-3)Gal(b1-3)GalNAc6S
# Outline: as §1
# [24] = molecular target: Neu5Ac(a2-3)Gal(b1-3)GlcNAc
# Outline: as §1
# [25] = molecular target: Neu5Ac(a2-3)Gal(b1-3)GlcNAc(b1-2)Man
# Outline: as §1
binder,measurement,setting,value
PX14375A-pdi-503-28-503 (Parabacteroides distasonis) (protein) PLGSPEAGDISEERQAFLRLTAVYSVMKDFRYTWSMQCFGDVLSNDATYSGSSNDAQTFTLLENYQYQADHTEILNKYRYSYQCINKANLFIRDMEMADDALFSKYDKEQMIGEAKFIRAYTYFELVKTFGGVPCYTGVLDLDHERLGRASVEEIYSVIEQDLNDAVSVLPKKSEVANYESSYAGRITKGAAIAMQTRIYLYEKKYDEVKKAFEKFQNECGGEYSLVAPEDYTWQFSLDGEHCSSSILEVNMYNSSTQSSYNVNNGNRHVLMSMPRNMTIGFGCAQPTQALADAYDAEGDVIRKKTTLLSTEEAIEIETAAKGDVAPVTDDRTGWYNRKLYLAPGQREENRGNNQPTNLRLIRLAEVYLNYAEACYFSGDIANAQKYLNEVRSHVNLAPKNHTGSQLFEDIMNERHLEFGMEGFRFFDVVRVGWGEKVFNGTKKAEFGAKTPFSAGAEVLPIPQTEIDISDGLITN,glycan array binding signal (z-score),[1],-0.487
same,glycan array binding signal (z-score),[2],2.82
same,glycan array binding signal (z-score),[3],0.4
same,glycan array binding signal (z-score),GlcNAc(b1-6)GalNAc,0.786
same,glycan array binding signal (z-score),[4],0.113
same,glycan array binding signal (z-score),Kdn(a2-3)Gal(b1-3)GalNAc,0.322
same,glycan array binding signal (z-score),Kdn(a2-3)Gal(b1-3)GlcNAc,-0.519
same,glycan array binding signal (z-score),Kdn(a2-3)Gal(b1-4)Glc,-0.245
same,glycan array binding signal (z-score),Kdn(a2-3)Gal(b1-4)GlcNAc,-0.314
same,glycan array binding signal (z-score),[5],0.745
same,glycan array binding signal (z-score),Kdn(a2-6)Gal(b1-4)GlcNAc,0.091
same,glycan array binding signal (z-score),[6],-0.487
same,glycan array binding signal (z-score),[7],0.511
same,glycan array binding signal (z-score),Man(a1-2)Man(a1-3)Man,-0.314
same,glycan array binding signal (z-score),[8],-0.754
same,glycan array binding signal (z-score),[9],1.42
same,glycan array binding signal (z-score),[10],-0.524
same,glycan array binding signal (z-score),[11],-0.13
same,glycan array binding signal (z-score),[12],-0.437
same,glycan array binding signal (z-score),[13],-0.976
same,glycan array binding signal (z-score),Man(a1-3)[Man(a1-6)]Man,-0.311
same,glycan array binding signal (z-score),[14],-0.406
same,glycan array binding signal (z-score),[15],0.539
same,glycan array binding signal (z-score),[16],-0.124
same,glycan array binding signal (z-score),[17],-0.325
same,glycan array binding signal (z-score),[18],-0.428
same,glycan array binding signal (z-score),Man(a1-6)Man,0.326
same,glycan array binding signal (z-score),Man(b1-4)GlcNAc,0.292
same,glycan array binding signal (z-score),MurNAc(b1-4)GlcNAc,1.31
same,glycan array binding signal (z-score),Neu5Ac(a2-3)Gal,-0.52
same,glycan array binding signal (z-score),[19],-0.136
same,glycan array binding signal (z-score),[20],0.101
same,glycan array binding signal (z-score),[21],-0.284
same,glycan array binding signal (z-score),[22],-0.907
same,glycan array binding signal (z-score),[23],-0.28
same,glycan array binding signal (z-score),[24],-0.623
same,glycan array binding signal (z-score),[25],0.999

# Some of the entries above in another layout:
binder | measurement | setting | value
PX14375A-pdi-503-28-503 (Parabacteroides distasonis) (protein) PLGSPEAGDISEERQAFLRLTAVYSVMKDFRYTWSMQCFGDVLSNDATYSGSSNDAQTFTLLENYQYQADHTEILNKYRYSYQCINKANLFIRDMEMADDALFSKYDKEQMIGEAKFIRAYTYFELVKTFGGVPCYTGVLDLDHERLGRASVEEIYSVIEQDLNDAVSVLPKKSEVANYESSYAGRITKGAAIAMQTRIYLYEKKYDEVKKAFEKFQNECGGEYSLVAPEDYTWQFSLDGEHCSSSILEVNMYNSSTQSSYNVNNGNRHVLMSMPRNMTIGFGCAQPTQALADAYDAEGDVIRKKTTLLSTEEAIEIETAAKGDVAPVTDDRTGWYNRKLYLAPGQREENRGNNQPTNLRLIRLAEVYLNYAEACYFSGDIANAQKYLNEVRSHVNLAPKNHTGSQLFEDIMNERHLEFGMEGFRFFDVVRVGWGEKVFNGTKKAEFGAKTPFSAGAEVLPIPQTEIDISDGLITN | glycan array binding signal (z-score) | [14] | -0.406
same | glycan array binding signal (z-score) | [15] | 0.539
